Measured values taken from PubChem BioAssay AID540256 (National Center for Advancing Translational Sciences (NCATS), 2011).
Among all 300,000 compounds or so, about 3,700 (1.2%) were called active. The shares of active, inactive and inconclusive entries below differ from those in the screen. The call rests on the fitted dose curve; tested in HEK293 cells. Potencies beside an inconclusive call are fits to weak or partial responses and may not hold up.

Assay: qHTS for Inhibitors of binding or entry into cells for Lassa Virus; further: nearly all actives have a fitted effect of over 50% in size
Conditions: Lassa virus pseudotype entry inhibition, cell reporter; activity change, negative = inhibition: at 37.9 µM (top of the series) unless noted
On the % scale 0 is the no-effect control and ±100 the full control effect; potency means the concentration at half of the fitted maximal effect.

Structure (SMILES)	Potency	activity change, negative = inhibition
CCC(NC(=O)CCl)c1ccc(C)cc1 (stereo not given)	inconclusive: 12.6 µM [inhibitor, single point]	
Nc1c(C(=O)NC2CC2)sc2nc3c(c(-c4ccco4)c12)CC/C3=C/c1ccco1		inactive: 6.79%
CCOc1ccc(CCNC(=O)COC(=O)c2ccc(Br)o2)cc1OCC		inconclusive: 0.675% [activator]
Nc1ncnc(Nc2cccc(F)c2)n1		inactive: 24.6%
COc1ccc(COC(=O)C2=C(C)NC(=O)NC2c2ccc(F)cc2)cc1 (stereo not given)	inconclusive: 17.8 µM [inhibitor, partial curve, poor fit]	
Cc1ccc(C)c(NC(=O)CN(C)C(=O)Cc2ccc(Cl)cc2Cl)c1	inconclusive: 5.62 µM [activator, single point]	
Cc1nc(SCC(=O)O)c2oc3ccccc3c2n1		inactive: -20.1%
CCOc1ccc2nc(NC(=O)NC3CCCCC3)sc2c1	inconclusive: 7.94 µM [inhibitor, partial curve, poor fit]	
CC(=O)Oc1ccc(Cl)cc1/C=C/c1ccc2ccccc2n1	inconclusive: 0.0891 µM [activator, full curve, poor fit]	
Cc1ccc(S(=O)(=O)Nc2c(C)n(C)n(-c3ccccc3)c2=O)cc1	inconclusive: 1.26 µM [inhibitor, single point]	
O=c1cc(CO)occ1OCc1ccccc1	inconclusive: 29.1 µM [activator, single point]	
CCCCn1c(N)c(N(CC(C)C)C(=O)CN(C)S(=O)(=O)c2ccc(NC(C)=O)cc2)c(=O)[nH]c1=O	inconclusive: 4.47 µM [activator, full curve, poor fit]	
Cn1c(O)c(C=NCCN2CCOCC2)c(=O)[nH]c1=S		inactive: 1.87% [at 46.1 µM]
Cc1cc(C(=O)Nc2nc(C)c(C(=O)N(C)C)s2)ccc1[N+](=O)[O-]	active: 10 µM	
CCOC(=O)c1c(NC(=O)/C=C/C(=O)O)sc(C)c1-c1ccc(F)cc1		inactive: -21.8%
COc1ccc(/C=C(/C#N)c2nc(-c3ccc(-c4ccccc4)cc3)cs2)cc1		inactive: 5.21% [at 46.1 µM]
COc1ccccc1C(=O)NC(=O)CSc1nncn1C		inactive: 19.7%
CCN(CCCNC(=O)c1cc2cc3cc(C)ccc3nc2s1)c1cccc(C)c1	inconclusive: 14.1 µM [activator, partial curve, poor fit]	
COc1cc2c(cc1OC)C(C(=O)N1CCN(c3ccccc3)CC1)C(c1cccs1)N(C)C2=O (stereo not given)	inconclusive: 6.51 µM [inhibitor, single point]	
O=C(NCCc1c[nH]c2ccccc12)C(=O)NCC1OCCN1S(=O)(=O)c1ccc(F)cc1 (stereo not given)	inconclusive: 25.9 µM [inhibitor, single point]	
COc1cc(OC)c(C(=O)O/N=C(\N)c2ccc(C)cc2)cc1OC	inconclusive: 3.16 µM [inhibitor, partial curve, poor fit]	
CC(C)Oc1ccc(CNC(=O)c2ccc(NC(=O)c3nsc4ccccc34)cc2)cc1	inconclusive: 1.12 µM [activator, partial curve, poor fit]	
O=C(CCOc1ccccc1)Nc1ccccc1[N+](=O)[O-]		inactive: 0.869%
COc1ccc(OC)c(C(c2nnnn2C2CCCC2)N2CCN(c3ccccc3F)CC2)c1 (stereo not given)	inconclusive: 10 µM [inhibitor, partial curve]	

Structure (SMILES)	Potency	activity change, negative = inhibition
O=C(O)c1n[nH]c2ccccc12		inactive: -2.8%
Brc1ccc2nc(N3CCCC3)sc2c1	inconclusive: 35.5 µM [inhibitor, single point]	
Cc1oc2ncnc(N3CCCCC3)c2c1C(=O)NCC1CCN(Cc2ccc(F)cc2)CC1		inactive: 19.4% [at 46.1 µM]
Cc1cc(C(=O)NCCc2ccc(Cl)cc2)no1		inactive: -11.8% [at 46.1 µM]
COc1cc(/C=N/NC(=O)c2cccc3ccccc23)ccc1OCC(N)=O		inactive: -9.2% [at 46.1 µM]
CCCn1nc(C(=O)Nc2ccc3nc(N4CCOCC4)sc3c2)ccc1=O	inconclusive: 20 µM [inhibitor, single point]	
O=C(NCCOc1ccccc1)c1ccccc1Cl	inconclusive: 20 µM [inhibitor, partial curve, poor fit]	
Cc1ccccc1CSc1nc2nc(C)c(Cc3ccccc3)c(C)n2n1	inconclusive: 35.5 µM [activator, single point]	
O=C(Nc1cc(Cl)ccc1Cl)c1cc(-c2ccco2)on1		inactive: -3.72% [at 46.1 µM]
O=C(c1ccc(N2CCCCC2)c([N+](=O)[O-])c1)N(Cc1ccccc1)c1ccccn1	inconclusive: 13 µM [inhibitor, partial curve]	
CC(NC(=O)Nc1ccccc1Cl)c1ccc2c(c1)OCO2 (stereo not given)	inconclusive: 5.01 µM [activator, single point]	
COc1cccc(NC(=O)c2oc3ccccc3c2NC(=O)C(C)(C)C)c1	inconclusive: 29.1 µM [inhibitor, single point]	
CC(=O)NNC(=O)CC(=O)Nc1nc(C23CC4CC(CC(C4)C2)C3)cs1	inconclusive: 10 µM [inhibitor, partial curve, poor fit]	
COc1ccc(C(=O)NC(Cc2ccccc2)c2ccc3c(c2)OCCCO3)cc1 (stereo not given)	inconclusive: 32.6 µM [inhibitor, single point]	
CCC(C)NC(=O)Cn1c(=O)n(-c2ccc(C)cc2)c(=O)c2ccccc21 (stereo not given)	inconclusive: 0.891 µM [inhibitor, full curve, poor fit]	
Cc1ccn2cc(CSc3ccccc3)nc2c1	inconclusive: 35.5 µM [inhibitor, single point]	
CC(C(=O)NCC1(c2ccccc2)CCOCC1)N1CCOCC1 (stereo not given)	inconclusive: 14.1 µM [activator, single point]	
CCOC(=O)Cn1c(=O)cc(-c2ccccc2)c2c(C)nn(C)c21		inactive: -20.6% [at 46.1 µM]
O=C(Nc1cccc(Cl)c1)Nc1ccnc(-c2cccnc2)n1		inactive: 11.1% [at 46.1 µM]
COc1ccc(S(=O)(=O)N2CCN(C3CC4CCC3C4)CC2)cc1 (stereo not given)	inconclusive: 0.158 µM [inhibitor, full curve, poor fit]	
CCC(=O)Nc1ccc2nc(C3CC3)n(Cc3ccccc3)c(=O)c2c1	inconclusive: 6.51 µM [activator, single point]	
CCOc1ccc(N=C2NC(=O)/C(=C/C(=O)OC)S2)cc1	inconclusive: 25.1 µM [inhibitor, single point]	
CC(C)C(=O)Nc1ccc(N2CCCC2)cc1		inactive: 6.34%
CCC(C)NC(=O)c1ccc2c(c1)N(Cc1cccc(Cl)c1)C(=O)c1ccccc1S2=O (stereo not given)	inconclusive: 2.82 µM [inhibitor, partial curve, poor fit]	

Part of the list above in a different format.
Structure (SMILES),Potency,"activity change, negative = inhibition"
COc1cc(/C=N/NC(=O)c2cccc3ccccc23)ccc1OCC(N)=O,,inactive: -9.2% [at 46.1 µM]
CC(NC(=O)Nc1ccccc1Cl)c1ccc2c(c1)OCO2 (stereo not given),"inconclusive: 5.01 µM [activator, single point]",
CC(=O)NNC(=O)CC(=O)Nc1nc(C23CC4CC(CC(C4)C2)C3)cs1,"inconclusive: 10 µM [inhibitor, partial curve, poor fit]",
O=C(Nc1cccc(Cl)c1)Nc1ccnc(-c2cccnc2)n1,,inactive: 11.1% [at 46.1 µM]

Further results

Structure (SMILES)	Potency	activity change, negative = inhibition
Cc1ccc(NC(=S)N2CCCC2)cc1Cl	inconclusive: 14.1 µM [activator, partial curve, poor fit]	
COc1ccc(N2CCN(CCCNC(=O)c3cnn(-c4ccc(F)cc4)c3-n3cccc3)CC2)cc1	inconclusive: 10 µM [inhibitor, partial curve, poor fit]	
COc1ccc(/C=C2\CCCCC2=O)cc1	inconclusive: 6.31 µM [activator, full curve, poor fit]	
COc1ccc(NC(=O)CSc2ccccc2)cc1S(=O)(=O)N1CCCCC1	inconclusive: 17.8 µM [inhibitor, single point]	
CC(N)C(=O)NC1C2C(=C(O)CC(O)C2O)C(=O)OC1(C)C(Cl)Cl (stereo not given)	active: 0.501 µM	
CCc1noc(C)c1C(=O)N(C)CC(=O)Nc1ccccc1Br		inactive: 5.81%
COCCCNC(=O)c1ccccc1NS(C)(=O)=O		inactive: 9.59%
COc1ccc(/C=C2\C(=O)OCc3cc(OC)c(OC)cc32)cc1OC	inconclusive: 14.6 µM [inhibitor, partial curve, poor fit]	
CCCCNc1nc(Oc2ccc(=O)n(-c3ccccc3)n2)nc(N(C)C)n1		inactive: 3.11% [at 46.1 µM]
Cc1nnc(-c2ccco2)c2cn(-c3cccc(Br)c3)nc12	inconclusive: 3.26 µM [inhibitor, partial curve, poor fit]	
CC(Sc1oc(-c2ccco2)nc1S(=O)(=O)c1ccc(Br)cc1)c1ccccc1 (stereo not given)	inconclusive: 5.62 µM [inhibitor, single point]	
O=C(CN1CCCc2ccccc21)N/N=C/c1c(O)ccc2ccccc12	inconclusive: 22.4 µM [inhibitor, single point]	
CCOc1ccccc1NC(=O)c1cccc(NC(=O)C2CCCC2)c1	inconclusive: 8.91 µM [inhibitor, partial curve, poor fit]	
CCC(CC)c1nn2c(=O)cc(COc3ccc(NC(=O)c4ccc(Cl)cc4)cc3)nc2s1		inactive: -13.5% [at 46.1 µM]
Cc1cc(C(=O)Cn2cc([N+](=O)[O-])ccc2=O)c(C)n1CC1CCCO1 (stereo not given)	inconclusive: 6.31 µM [inhibitor, single point]	
Cc1ccc(SCc2nc3ccccc3n2CC(=O)Nc2ccc(Cl)cc2)cc1	inconclusive: 2.91 µM [inhibitor, partial curve, poor fit]	
O=Cc1cn(Cc2ccccc2[N+](=O)[O-])c2ccccc12	inconclusive: 9.2 µM [inhibitor, partial curve]	
COc1cc(/C=N/Nc2nc(Nc3ccc(C)cc3)nc(-n3nc(C)cc3C)n2)cc(OC)c1OC	inconclusive: 23.1 µM [inhibitor, single point]	
COc1ccc2c(c1OC)C(=O)N(c1ncn[nH]1)C2	inconclusive: 35.5 µM [activator, single point]	
CCOc1ccc(S(=O)(=O)Nc2cccc(OC)c2)cc1		inactive: -16.1%
O=C(NCc1cccs1)c1nc2c(nnn2Cc2ccccc2Cl)c(=O)[nH]1	active: 11.2 µM	
COc1ccc2cc3cc(C(=O)NCc4ccc5c(c4)OCO5)oc3nc2c1	active: 0.82 µM	
